The target of experiment [1] is T1, MEX-3 RNA binding family member A (MEX3A) (human) (UniProt A1L020).
T1 sequence: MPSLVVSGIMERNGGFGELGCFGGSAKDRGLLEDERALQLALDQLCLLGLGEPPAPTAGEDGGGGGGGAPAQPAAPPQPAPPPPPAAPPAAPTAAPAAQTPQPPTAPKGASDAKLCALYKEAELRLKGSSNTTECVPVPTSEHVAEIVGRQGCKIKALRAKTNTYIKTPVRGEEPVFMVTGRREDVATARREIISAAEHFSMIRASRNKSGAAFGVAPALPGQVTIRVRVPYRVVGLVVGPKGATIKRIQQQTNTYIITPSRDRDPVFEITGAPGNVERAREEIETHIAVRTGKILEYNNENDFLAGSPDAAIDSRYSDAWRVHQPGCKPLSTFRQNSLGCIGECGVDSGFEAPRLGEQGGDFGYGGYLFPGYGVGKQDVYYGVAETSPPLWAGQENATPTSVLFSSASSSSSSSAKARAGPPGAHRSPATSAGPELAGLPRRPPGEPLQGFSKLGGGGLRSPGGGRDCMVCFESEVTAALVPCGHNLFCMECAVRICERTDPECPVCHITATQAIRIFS
The experiment is described as follows: co-sedimentation; whole-cell lysate of circMPP6-knockdown DLD-1 cells on a linear 5-30% (w/v) sucrose gradient, 12 h at 4 °C, 36,000 rpm, ten fractions, Western blotting. Background: A western blot detects proteins with antibodies after separation by electrophoresis.

Chains of the proteins cited; added tags and fusions are not shown.
UniProt P11940: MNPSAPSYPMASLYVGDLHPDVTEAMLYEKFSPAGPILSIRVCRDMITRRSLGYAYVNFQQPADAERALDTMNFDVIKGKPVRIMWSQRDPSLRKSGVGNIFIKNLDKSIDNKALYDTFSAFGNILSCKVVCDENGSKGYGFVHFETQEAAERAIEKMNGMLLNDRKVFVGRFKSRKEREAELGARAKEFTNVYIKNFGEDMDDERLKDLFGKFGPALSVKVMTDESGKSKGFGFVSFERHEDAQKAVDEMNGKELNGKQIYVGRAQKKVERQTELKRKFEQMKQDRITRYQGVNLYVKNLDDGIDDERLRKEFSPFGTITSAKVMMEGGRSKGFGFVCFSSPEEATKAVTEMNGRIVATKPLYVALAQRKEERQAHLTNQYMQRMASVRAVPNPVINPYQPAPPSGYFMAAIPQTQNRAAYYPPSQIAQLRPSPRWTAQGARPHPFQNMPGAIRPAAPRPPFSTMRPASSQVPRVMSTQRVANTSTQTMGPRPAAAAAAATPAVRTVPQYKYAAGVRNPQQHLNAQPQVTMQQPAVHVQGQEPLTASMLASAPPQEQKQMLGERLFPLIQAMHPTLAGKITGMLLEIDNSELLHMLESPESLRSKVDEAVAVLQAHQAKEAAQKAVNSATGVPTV

The next experiment addresses T2, Flag-MEX3A (human) (UniProt A1L020).
T2 sequence: T1 sequence
Description: co-IP; Flag-IP of Flag-MEX3A and its KH-domain truncations from DLD-1 cells, Western blotting.

For experiment [2], the target named is T1, MEX-3 RNA binding family member A (MEX3A) (human). Description: co-sedimentation; whole-cell lysate of control DLD-1 cells on a linear 5-30% (w/v) sucrose gradient, 12 h at 4 °C, 36,000 rpm, ten fractions, Western blotting.
Experiment [3] shares this target. Description: co-IP; MEX3A-IP from 293T and CRC (DLD-1) cell lysates, Western blotting; also in control and circMPP6-knockdown CRC cells (knock-down decreased the co-precipitated proteins).

Among the data in PMC10987644 are binding values, retold here.

No constants are given. Whether binding was seen depends on the method and setting. Binding seen in cells or lysates may run through a third protein. Some entries that bind do so weakly or less than the wild type. For part of these data: Sequences can lack the tags named with a protein.

In the case of PABP1 (from UniProt P11940 1-636), the binding entry in experiment [1] is “binds weakly”; with Flag-MEX3A (human), “binds”; in experiment [2], “binds”; in experiment [3] it was “binds”.

B1: UPF1 (protein, UniProt Q92900 1-1129)
chain: MSVEAYGPSSQTLTFLDTEEAELLGADTQGSEFEFTDFTLPSQTQTPPGGPGGPGGGGAGGPGGAGAGAAAGQLDAQVGPEGILQNGAVDDSVAKTSQLLAELNFEEDEEDTYYTKDLPIHACSYCGIHDPACVVYCNTSKKWFCNGRGNTSGSHIVNHLVRAKCKEVTLHKDGPLGETVLECYNCGCRNVFLLGFIPAKADSVVVLLCRQPCASQSSLKDINWDSSQWQPLIQDRCFLSWLVKIPSEQEQLRARQITAQQINKLEELWKENPSATLEDLEKPGVDEEPQHVLLRYEDAYQYQNIFGPLVKLEADYDKKLKESQTQDNITVRWDLGLNKKRIAYFTLPKTDSGNEDLVIIWLRDMRLMQGDEICLRYKGDLAPLWKGIGHVIKVPDNYGDEIAIELRSSVGAPVEVTHNFQVDFVWKSTSFDRMQSALKTFAVDETSVSGYIYHKLLGHEVEDVIIKCQLPKRFTAQGLPDLNHSQVYAVKTVLQRPLSLIQGPPGTGKTVTSATIVYHLARQGNGPVLVCAPSNIAVDQLTEKIHQTGLKVVRLCAKSREAIDSPVSFLALHNQIRNMDSMPELQKLQQLKDETGELSSADEKRYRALKRTAERELLMNADVICCTCVGAGDPRLAKMQFRSILIDESTQATEPECMVPVVLGAKQLILVGDHCQLGPVVMCKKAAKAGLSQSLFERLVVLGIRPIRLQVQYRMHPALSAFPSNIFYEGSLQNGVTAADRVKKGFDFQWPQPDKPMFFYVTQGQEEIASSGTSYLNRTEAANVEKITTKLLKAGAKPDQIGIITPYEGQRSYLVQYMQFSGSLHTKLYQEVEIASVDAFQGREKDFIILSCVRANEHQGIGFLNDPRRLNVALTRARYGVIIVGNPKALSKQPLWNHLLNYYKEQKVLVEGPLNNLRESLMQFSKPRKLVNTINPGARFMTTAMYDAREAIIPGSVYDRSSQGRPSSMYFQTHDQIGMISAGPSHVAAMNIPIPFNLVMPPMPPPGYFGQANGPAAGRGTPKGKTGRGGRQKNRFGLPGPSQTNLPNSQASQDVASQPFSQGALTQGYISMSQPSQMSQPGLSQPELSQDSYLGDEFKSQIDVALSQDSTYQGERAYQHGGVTGLSQY
Consider B1, for which the binding result in experiment [1] was “binds weakly”; in the experiment with Flag-MEX3A (human) it was “binds”; in experiment [2] it was “binds”; in experiment [3], “binds”.

B2: MOV10 (protein, UniProt Q9HCE1 1-1003)
chain: MPSKFSCRQLREAGQCFESFLVVRGLDMETDRERLRTIYNRDFKISFGTPAPGFSSMLYGMKIANLAYVTKTRVRFFRLDRWADVRFPEKRRMKLGSDISKHHKSLLAKIFYDRAEYLHGKHGVDVEVQGPHEARDGQLLIRLDLNRKEVLTLRLRNGGTQSVTLTHLFPLCRTPQFAFYNEDQELPCPLGPGECYELHVHCKTSFVGYFPATVLWELLGPGESGSEGAGTFYIARFLAAVAHSPLAAQLKPMTPFKRTRITGNPVVTNRIEEGERPDRAKGYDLELSMALGTYYPPPRLRQLLPMLLQGTSIFTAPKEIAEIKAQLETALKWRNYEVKLRLLLHLEELQMEHDIRHYDLESVPMTWDPVDQNPRLLTLEVPGVTESRPSVLRGDHLFALLSSETHQEDPITYKGFVHKVELDRVKLSFSMSLLSRFVDGLTFKVNFTFNRQPLRVQHRALELTGRWLLWPMLFPVAPRDVPLLPSDVKLKLYDRSLESNPEQLQAMRHIVTGTTRPAPYIIFGPPGTGKTVTLVEAIKQVVKHLPKAHILACAPSNSGADLLCQRLRVHLPSSIYRLLAPSRDIRMVPEDIKPCCNWDAKKGEYVFPAKKKLQEYRVLITTLITAGRLVSAQFPIDHFTHIFIDEAGHCMEPESLVAIAGLMEVKETGDPGGQLVLAGDPRQLGPVLRSPLTQKHGLGYSLLERLLTYNSLYKKGPDGYDPQFITKLLRNYRSHPTILDIPNQLYYEGELQACADVVDRERFCRWAGLPRQGFPIIFHGVMGKDEREGNSPSFFNPEEAATVTSYLKLLLAPSSKKGKARLSPRSVGVISPYRKQVEKIRYCITKLDRELRGLDDIKDLKVGSVEEFQGQERSVILISTVRSSQSFVQLDLDFNLGFLKNPKRFNVAVTRAKALLIIVGNPLLLGHDPDWKVFLEFCKENGGYTGCPFPAKLDLQQGQNLLQGLSKLSPSTSGPHSHDYLPQEREGEGGLSLQVEPEWRNEL
In the case of B2, the binding result was “binds weakly” in experiment [1], “binds” with Flag-MEX3A (human), “binds” in experiment [2] and “binds” in experiment [3].
